Data as given in PubChem BioAssay AID2551 (National Center for Advancing Translational Sciences (NCATS), 2010).
“And” between values parts separate entries of the source, which are not always exact repeats. Identical values can stand only once. Hit rate of the full screen: of about 310,000 compounds, about 17,000 (5.5%) were called active. The shares of active, inactive and inconclusive entries below differ from those in the screen. Calls follow the shape of the dose curve; as a rule, active = well fitted inhibition curve with a large enough effect; inconclusive = small, poorly fitted or top-dose-only effect, or effect the other way; inactive = no such curve, though single readings can be large or run the other way. Where the call is inconclusive, the potency comes from a doubtful curve fit.

By UniProt entry, the sequences of proteins in these tests, tags left out. Where a name states a change or a piece, a line headed by the entry shows the natural chain unless it says otherwise.
UniProt P51450: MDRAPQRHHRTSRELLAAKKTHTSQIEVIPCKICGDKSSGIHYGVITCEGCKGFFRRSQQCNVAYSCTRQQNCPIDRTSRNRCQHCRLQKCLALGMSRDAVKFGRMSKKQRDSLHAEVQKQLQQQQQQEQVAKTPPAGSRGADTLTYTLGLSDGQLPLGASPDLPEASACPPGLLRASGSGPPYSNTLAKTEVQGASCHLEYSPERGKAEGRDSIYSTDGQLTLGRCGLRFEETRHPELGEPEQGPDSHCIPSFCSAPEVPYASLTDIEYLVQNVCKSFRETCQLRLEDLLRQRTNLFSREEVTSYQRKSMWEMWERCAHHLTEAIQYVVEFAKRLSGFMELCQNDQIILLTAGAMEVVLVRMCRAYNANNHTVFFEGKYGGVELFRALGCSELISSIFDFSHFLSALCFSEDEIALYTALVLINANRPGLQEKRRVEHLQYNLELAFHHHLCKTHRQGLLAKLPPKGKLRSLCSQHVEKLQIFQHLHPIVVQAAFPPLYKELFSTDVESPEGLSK

These compounds were tested against Nuclear receptor ROR-gamma (Mus musculus) (UniProt P51450) (assay: qHTS for inhibitors of ROR gamma transcriptional activity). Conditions: Drosophila S2 Gal4-RORgamma UAS-luciferase reporter, 20 h; activity change, negative = inhibition: at 53.6 µM (top of the series).
Summary of the method: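 Read-out: Photinus luciferase luminescence; inhibitors lower reporter signal. Insect Schneider cells with Gal4-ROR gamma fusion under metallothionein promoter, UAS reporter; 700 uM final copper sulfate induction, 20 hr, ambient temperature.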
% is scaled to controls: 0 for no effect and ±100 for the full control effect; potency is read from the fitted curve at half-maximal effect.
Also: nearly all actives have a fitted effect of over 60% in size.

SMILES	activity change, negative = inhibition	Potency
COc1ccc(CN2C(=O)NC(=O)/C(=C\c3cc(OC)c(OC)c(OC)c3)C2=O)cc1	inactive: 33.1%	
S=c1[nH]nc(Cn2c(-c3ccccn3)nc3ccccc32)n1-c1ccc2c(c1)OCCO2		inconclusive: 22.4 µM [inhibitor, single point]
CC(=O)c1c(O)c(C)c(O)c(Cc2c(O)c3c(c(C(=O)/C=C\c4ccccc4)c2O)OC(C)(C)C=C3)c1O		inconclusive: 35.5 µM [activator, single point]
Cc1oc(-c2ccccc2)nc1CN1C(=O)C(C)N=C(c2ccccc2F)c2cc(Cl)ccc21 (configuration not stated)		active: 12.6 µM
C=CCN1C(=O)/C(=C/c2ccc3c(c2)CCCN3CCC)C(=O)NC1=S		inconclusive: 1.26 µM [inhibitor, partial curve, poor fit]
COc1ccc(OC)c([C@H](O)[C@H](C)N)c1	inactive: -0.539% [at 16.9 µM]	
O=C(CSc1nnc(NC(=O)c2ccccc2[N+](=O)[O-])s1)NCc1ccco1		inconclusive: 12.6 µM [inhibitor, single point]
S=C=NCc1ccccc1		active: 5.62 µM
O=[N+]([O-])c1cccc2ccccc12	inactive: 2.85%	
CCOc1cc(C2NCc3ccccc3-n3cccc32)ccc1O (configuration not stated)	inactive: 3.25%	
CCC(=NC(C)c1ccccc1)c1c(O)n(C)c(=O)n(C)c1=O (configuration not stated)		inconclusive: 35.5 µM [inhibitor, single point]
Nn1cnnc1	inactive: -5.93%	
O=C1NC(=O)C(=Cc2ccc(-c3ccc(S(=O)(=O)N4CCOCC4)cc3)o2)C(=O)N1	inactive: -11.6%	
Cc1ccc(/C=C/C(=O)C2C(=O)c3ccccc3C2=O)cc1		active: 6.31 µM
Cc1ccsc1-c1nc(CSCC(=O)N2CCC3(CC2)OCCO3)c(C)o1	inactive: 17.7%	
COc1ccc(C2SCC(=O)Nc3c2c(=O)[nH]n3C2CCCCCC2)cc1OC (configuration not stated)	inactive: -0.0035%	
CN(C)S(=O)(=O)c1ccc(C(=O)NNc2nc(-c3ccccc3)c3cc(Br)ccc3n2)cc1		active: 7.08 µM
CCn1c(O)c(/C=N/NC(=O)c2ccccc2)c(=O)[nH]c1=S		active: 7.08 µM
CCNc1nc(Cl)nc(NCC)n1		inconclusive: 39.8 µM [activator, partial curve, poor fit]
COc1ccccc1OP(=O)(Nc1cccnc1)Oc1ccccc1OC		inconclusive: 35.5 µM [activator, single point]
O=C(CCN1CCCCC1)NCC(=O)Nc1ccc(Br)cc1C(=O)c1ccccc1		inconclusive: 12.6 µM [inhibitor, single point]
CCCCn1c(O)c(C(CC)=NCc2cc(OC)cc(OC)c2)c(=O)[nH]c1=O		inconclusive: 35.5 µM [activator, single point]
CC(C)(C)NC(=O)NC(=O)CN1CC=C(c2ccccc2)CC1	inactive: 9.07%	
O=C(C1CCCCC1)N1CCC(c2nc3c(nnn3Cc3c(F)cccc3Cl)c(=O)[nH]2)CC1		inconclusive: 3.16 µM [activator, full curve, poor fit]

SMILES	activity change, negative = inhibition	Potency
O=c1[nH]sc2cc(F)ccc12		active: 2.24 µM
O=C(Nc1ccc(Br)cc1C(=O)O)c1ccc2c(c1)C(=O)N(Cc1ccccc1)C2=O		active: 10 µM
O=C(N/N=C/c1c(O)n(Cc2ccccc2)c(=O)[nH]c1=O)c1ccccc1		inconclusive: 17.8 µM [inhibitor, single point]
Cc1ccc(N)c(C(=O)c2ccc(Br)cc2)c1		inconclusive: 35.5 µM [inhibitor, single point]
Cc1ccc2c(Cl)cc(Cl)c(OCC(=O)N(C(C)C)C(C)C)c2n1		active: 6.31 µM
O=c1c2ccccc2nc(-c2cccs2)n1-c1ccccc1		inconclusive: 1.78 µM [activator, full curve, poor fit]
N#Cc1ccc(Cn2cc(C=O)c3ccccc32)cc1	inactive: 15.7%	
Cc1ccc(N2C(=O)NC(=O)/C(=C\c3cc(C)n(-c4ccc(C(=O)O)cc4)c3C)C2=O)cc1	inactive: 4.66%	
CCCc1nnc(NC(=O)CCC(=O)N2CCN(Cc3ccc(OC)c(F)c3)CC2)s1		inconclusive: 12.6 µM [activator, single point]
COC(=O)C1=Nc2ccccc2/C1=C\c1c(O)n(-c2ccc(Br)cc2)c(=O)[nH]c1=O		inconclusive: 17.8 µM [inhibitor, single point]
O=C(Oc1ccc(Br)cc1C(=S)N1CCCC1)c1ccccc1Cl		inconclusive: 35.5 µM [inhibitor, single point]
C[C@](O)(CS(=O)(=O)c1ccc(F)cc1)C(=O)Nc1ccc(C#N)c(C(F)(F)F)c1		inconclusive: 22.4 µM [activator, single point]
CCOC(=O)c1cc(C)sc1/N=C/C1C(=O)NC(=S)NC1=O		active: 15.8 µM
Cc1ccnc(-n2c(C)cc(C=C3C(=O)N(C)C(=S)N(C)C3=O)c2C)c1	inactive: -10.9%	
Cc1[nH]c(=S)c(C#N)c2c1CCCC2		inconclusive: 3.16 µM [inhibitor, single point]
CC[N+](C)(CC)CCC[n+]1c(-c2ccccc2)c2cc(N)ccc2c2ccc(N)cc21		active: 3.16 µM
CC1C(=O)OC2C1CC[C@@]1(C)C=CC(=O)[C@@]3(C)O[C@@]213 (some centres not stated)		inconclusive: 12.6 µM [activator, partial curve]
N#Cc1nn(-c2c(Cl)cc(C(F)(F)F)cc2Cl)c(N)c1S(=O)C(F)(F)F (configuration not stated)		inconclusive: 14.1 µM [activator, single point] and inconclusive: 5.62 µM [activator, partial curve, poor fit]
O=C(c1cccs1)N1C2CCC1CC(O)(c1cccnc1)C2 (configuration not stated)		inconclusive: 35.5 µM [activator, single point]
O=C1CN=C(c2cccs2)c2c(sc3c2CCCC3)N1	inactive: -22.7%	
c1ccc(CCNCc2cccs2)cc1		inconclusive: 3.16 µM [inhibitor, single point]
CCOc1cc(CNCCc2c[nH]c3ccccc23)cc(Cl)c1OC		inconclusive: 35.5 µM [inhibitor, single point]
